No constants are given. Whether binding was seen depends on the method and setting. Binding seen in cells or lysates may run through a third protein. Some binding calls cover weakened binding; strength is not graded here. Values belong to the molecule of their own block, whether it stands above or below them.
Experiments:
[1] = biological target: TCP1 complex subunit 8 (CCT8) (human (endogenous in HCT116 and RKO)) (UniProt P50990); assay: co-IP; endogenous proteins; cytoplasmic and nuclear proteins of HCT116 separated, interaction detected in the cytoplasm; purified by anti-CCT8 or anti-p53 affinity gel; pellets blotted with anti-p53 and anti-CCT8 antibodies
[2] = biological target: TCP1 complex subunit 8 (CCT8) (human (endogenous in HCT116 and RKO)) (UniProt P50990); assay: co-IP; endogenous proteins; HCT116 and RKO cells lysed and purified by anti-CCT8 or anti-LASP1 affinity gel; pellets blotted with anti-LASP1 and anti-CCT8 antibodies

Protein sequences, listed by entry. Tags and fused reporters are not part of them.
UniProt P50990: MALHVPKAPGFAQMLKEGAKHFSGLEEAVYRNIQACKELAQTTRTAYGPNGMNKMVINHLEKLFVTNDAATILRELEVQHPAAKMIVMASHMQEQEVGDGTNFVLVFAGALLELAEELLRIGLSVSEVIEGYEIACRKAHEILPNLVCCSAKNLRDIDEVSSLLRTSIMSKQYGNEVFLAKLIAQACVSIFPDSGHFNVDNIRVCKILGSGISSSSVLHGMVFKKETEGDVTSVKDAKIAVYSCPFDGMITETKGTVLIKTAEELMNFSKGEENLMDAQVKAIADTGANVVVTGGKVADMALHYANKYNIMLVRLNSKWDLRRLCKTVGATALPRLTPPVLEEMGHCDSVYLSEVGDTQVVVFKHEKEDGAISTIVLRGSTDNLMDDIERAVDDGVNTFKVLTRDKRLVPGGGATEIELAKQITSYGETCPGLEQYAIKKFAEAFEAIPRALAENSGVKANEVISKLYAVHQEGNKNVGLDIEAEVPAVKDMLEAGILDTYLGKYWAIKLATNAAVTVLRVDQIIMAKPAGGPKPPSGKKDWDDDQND

binding [1]: binds
Molecule: tumor suppressor protein p53 (wild type, WTp53) (from UniProt P04637 1-393)

binding [2]: binds
B1: LIM and SH3 protein 1 (LASP1) (protein, UniProt Q14847 1-261)
chain: MNPNCARCGKIVYPTEKVNCLDKFWHKACFHCETCKMTLNMKNYKGYEKKPYCNAHYPKQSFTMVADTPENLRLKQQSELQSQVRYKEEFEKNKGKGFSVVADTPELQRIKKTQDQISNIKYHEEFEKSRMGPSGGEGMEPERRDSQDGSSYRRPLEQQQPHHIPTSAPVYQQPQQQPVAQSYGGYKEPAAPVSIQRSAPGGGGKRYRAVYDYSAADEDEVSFQDGDTIVNVQQIDDGWMYGTVERTGDTGMLPANYVEAI

Reference: article PMC8642402
